Results from PMC10344929, “Crosstalk between regulatory elements in disordered TRPV4 N-terminus modulates lipid-dependent channel activity” (Nature Communications, 2023).
These are yes or no findings as the source states them, for the method shown. Each block holds one molecule with its values, some of them ahead of it.

Columns and labels:
Experiment in all cases: condition: 2 mg/mL loaded (SEC-MALS); 2-3 mg/mL (analytical SEC); SEC + SEC-MALS; Superdex200 Increase 10/300, 20 mM Tris pH 7, 300 mM NaCl, 1 mM DTT; SEC-MALS: 200 uL at 2 mg/mL loaded; analytical SEC: 250 uL at 2-3 mg/mL, 4 °C; both purified
[1] = target: Gallus gallus TRPV4 isolated ankyrin repeat domain (residues 135-382) (Gallus gallus)
[2] = target: Gallus gallus TRPV4 N-terminal domain (residues 2-382) (Gallus gallus)
[3] = target: Gallus gallus TRPV4 isolated intrinsically disordered region (residues 2-134) (Gallus gallus)

binding [1]: no binding
Molecule: Gallus gallus TRPV4 isolated ankyrin repeat domain (residues 135-382) (from UniProt A0A1D5PXA5 135-382) (domain or fragment)

binding [2]: no binding
Molecule: Gallus gallus TRPV4 N-terminal domain (residues 2-382) (from UniProt A0A1D5PXA5 2-382) (domain or fragment)

binding [3]: no binding
B1: Gallus gallus TRPV4 isolated intrinsically disordered region (residues 2-134) (domain or fragment, UniProt A0A1D5PXA5 2-134, looked up)
chain: ADPEDPRDAGDVLGDDSFPLSSLANLFEVEDTPSPAEPSRGPPGAVDGKQNLRMKFHGAFRKGPPKPMELLESTIYESSVVPAPKKAPMDSLFDYGTYRQHPSENKRWRRRVVEKPVAGTKGPAPNPPPILKV
notes: TRPV4, Gallus gallus, N-terminal intrinsically disordered region, residues 2-134; Made from the NTD vector by Gibson deletion; also called IDR; TRPV4 IDR; source: E. coli BL21-Gold(DE3), purified (Ni-NTA, Ulp-1 cleavage, reverse Ni-NTA, SEC); not shown: His6SUMO, N-terminal, cleaved
